# In patent US20060204512A1:
# The chains behind the UniProt entries cited, without tags or fusion partners. Where a name states a change or a piece, a line headed by the entry shows the natural chain unless it says otherwise. Residues count along the entry.
# UniProt P52799, residues 28-229: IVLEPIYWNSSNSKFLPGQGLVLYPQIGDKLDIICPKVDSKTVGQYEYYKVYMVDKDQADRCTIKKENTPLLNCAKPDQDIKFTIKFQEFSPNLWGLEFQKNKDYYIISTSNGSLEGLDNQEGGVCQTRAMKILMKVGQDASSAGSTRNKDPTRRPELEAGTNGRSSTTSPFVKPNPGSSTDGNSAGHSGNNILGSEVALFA
# UniProt P02768: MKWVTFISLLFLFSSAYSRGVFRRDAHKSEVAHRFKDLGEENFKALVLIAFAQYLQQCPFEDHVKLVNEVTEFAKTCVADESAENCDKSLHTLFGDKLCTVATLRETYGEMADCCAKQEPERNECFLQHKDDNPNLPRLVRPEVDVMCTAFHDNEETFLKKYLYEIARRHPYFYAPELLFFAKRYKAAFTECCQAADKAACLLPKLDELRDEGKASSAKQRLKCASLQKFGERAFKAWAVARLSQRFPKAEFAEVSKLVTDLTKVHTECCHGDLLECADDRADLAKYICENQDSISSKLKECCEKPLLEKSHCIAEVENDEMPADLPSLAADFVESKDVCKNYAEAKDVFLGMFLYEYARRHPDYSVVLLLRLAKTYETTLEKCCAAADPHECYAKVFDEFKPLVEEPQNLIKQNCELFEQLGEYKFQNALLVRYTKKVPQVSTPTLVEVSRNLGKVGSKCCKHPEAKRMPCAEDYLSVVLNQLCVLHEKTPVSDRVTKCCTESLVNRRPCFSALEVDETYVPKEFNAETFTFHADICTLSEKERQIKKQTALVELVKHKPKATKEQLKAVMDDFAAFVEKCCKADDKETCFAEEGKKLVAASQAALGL
# These are yes or no findings as the source states them, for the method shown. Some results given as binding are weak or reduced against the parent protein; the word gives no strength. For some assays here: Tags and fused reporters may be left off the sequences shown.
# How the values were obtained:
# [1] = biological target: T1, B4EC-AP reagent (protein fusion of EphB4 ectodomain with placental alkaline phosphatase) (UniProt P54760); experiment: biochemical assays; format for B2EC not described
# T1 sequence (looked up): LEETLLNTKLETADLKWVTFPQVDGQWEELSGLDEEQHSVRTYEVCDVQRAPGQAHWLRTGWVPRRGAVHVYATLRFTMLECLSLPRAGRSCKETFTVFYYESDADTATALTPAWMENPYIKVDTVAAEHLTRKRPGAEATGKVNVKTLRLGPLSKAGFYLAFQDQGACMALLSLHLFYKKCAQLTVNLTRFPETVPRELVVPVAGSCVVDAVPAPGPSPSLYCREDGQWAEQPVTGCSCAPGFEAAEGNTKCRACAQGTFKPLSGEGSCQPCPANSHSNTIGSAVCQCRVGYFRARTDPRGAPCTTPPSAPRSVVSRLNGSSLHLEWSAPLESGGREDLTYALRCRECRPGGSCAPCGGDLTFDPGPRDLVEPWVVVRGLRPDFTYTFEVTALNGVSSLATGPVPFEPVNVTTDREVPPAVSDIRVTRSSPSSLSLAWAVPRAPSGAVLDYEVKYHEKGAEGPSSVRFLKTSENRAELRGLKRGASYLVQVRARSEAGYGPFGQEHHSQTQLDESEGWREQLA
# [2] = biological target: B2EC-AP reagent (protein fusion of Ephrin B2 ectodomain with placental alkaline phosphatase) (UniProt P52799); experiment: assay not described
Substance,binding [1],binding [2]
B2EC protein (from UniProt P52799 28-225) (ligand),binds,
EphB4 ectodomain fusion to the C-terminus of HSA (from UniProt P02768 25-609; P54760 16-539),,binds
